Experimental findings from article doi:10.1101/415992 are described below.

Chains of the proteins cited; added tags and fusions are not shown.
UniProt P40460: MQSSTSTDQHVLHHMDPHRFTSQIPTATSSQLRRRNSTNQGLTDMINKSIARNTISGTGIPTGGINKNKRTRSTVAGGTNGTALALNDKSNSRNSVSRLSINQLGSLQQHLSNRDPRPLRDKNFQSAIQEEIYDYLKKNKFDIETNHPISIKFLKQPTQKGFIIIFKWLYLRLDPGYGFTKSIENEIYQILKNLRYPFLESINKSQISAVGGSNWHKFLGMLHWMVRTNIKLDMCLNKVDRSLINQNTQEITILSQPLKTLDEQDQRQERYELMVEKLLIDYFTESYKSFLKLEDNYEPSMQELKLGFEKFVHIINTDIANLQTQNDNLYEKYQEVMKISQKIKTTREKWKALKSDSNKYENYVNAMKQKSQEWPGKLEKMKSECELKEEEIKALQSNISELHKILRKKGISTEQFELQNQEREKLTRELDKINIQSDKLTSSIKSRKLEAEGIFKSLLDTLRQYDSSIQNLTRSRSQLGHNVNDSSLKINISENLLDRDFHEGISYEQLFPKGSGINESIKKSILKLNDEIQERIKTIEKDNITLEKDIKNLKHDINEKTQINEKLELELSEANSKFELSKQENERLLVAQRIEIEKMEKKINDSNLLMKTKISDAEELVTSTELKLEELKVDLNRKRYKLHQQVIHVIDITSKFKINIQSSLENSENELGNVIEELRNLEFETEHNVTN

The target of experiment [1] is T1, Dsn1-6His-3Flag (budding yeast) (UniProt P40568).
T1 sequence: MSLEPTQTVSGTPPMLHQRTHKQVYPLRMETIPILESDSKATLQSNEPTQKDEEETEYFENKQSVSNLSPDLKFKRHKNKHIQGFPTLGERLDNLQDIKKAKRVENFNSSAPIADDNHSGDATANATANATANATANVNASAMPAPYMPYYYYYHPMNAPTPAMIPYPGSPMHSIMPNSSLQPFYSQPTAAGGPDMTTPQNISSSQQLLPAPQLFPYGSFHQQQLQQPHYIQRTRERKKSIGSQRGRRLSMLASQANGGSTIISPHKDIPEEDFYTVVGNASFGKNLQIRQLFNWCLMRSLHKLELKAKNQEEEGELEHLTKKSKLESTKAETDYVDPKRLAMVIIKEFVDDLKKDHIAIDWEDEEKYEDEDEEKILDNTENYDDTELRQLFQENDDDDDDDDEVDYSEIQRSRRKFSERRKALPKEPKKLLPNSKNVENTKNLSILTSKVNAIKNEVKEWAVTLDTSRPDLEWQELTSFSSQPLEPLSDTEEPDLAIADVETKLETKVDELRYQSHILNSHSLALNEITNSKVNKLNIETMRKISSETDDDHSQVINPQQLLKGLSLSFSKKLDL
Put plainly: co-IP.

The target in experiment [2] is T2, Dad1-3Flag (budding yeast) (UniProt Q12248).
T2 sequence: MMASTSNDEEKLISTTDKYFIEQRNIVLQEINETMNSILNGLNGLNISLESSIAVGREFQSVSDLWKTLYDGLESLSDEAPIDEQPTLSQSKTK
Put plainly: co-IP.

No constants are given. Whether binding was seen depends on the method and setting. Binding seen in cells or lysates may run through a third protein. Some results given as binding are weak or reduced against the parent protein; the word gives no strength. Sequences can lack the tags named with a protein.

On to Ndc80 (from UniProt P40460 1-691), for which, in experiment [1], the binding result was “binds”.

B1: Spc34 (protein, UniProt P36131 1-295)
chain: MGESLDRCIDDINRAVDSMSTLYFKPPGIFHNAILQGASNKASIRKDITRLIKDCNHDEAYLLFKVNPEKQSVSRRDGKEGVFDYVIKRDTDMKRNRRLGRPGEKPIIHVPKEVYLNKDRLDLNNKRRRTATTSGGGLNGFIFDTDLIGSSVISNSSSGTFKALSAVFKDDPQIQRLLYALENGSVLMEEESNNQRRKTIFVEDFPTDLILKVMAEVTDLWPLTEFKQDYDQLYHNYEQLSSKLRFIKKEVLLQDDRLKTMSQYHPSSSHDVAKIIRKEKDEIRRLEMEIANLQE
B1: the binding entry in experiment [2] is on record as “binds”.

B2: Spc105 (protein, UniProt P53148 1-917)
chain: MNVDERSRIGGREKDAGPGKGILKQNQSSQMTSSFLENPGVRIPTRIITKKEVLDGSNTTSRINTSNLQSMVKRRVSFAPDVTLHSFTFVPEQNNEIKEPRRRKTSTNSPTKISSQEEPLVTSTQIDDARTEEKTAAEEDPDTSGMELTEPIVATPDSNKASQHDPTSMEMTEVFPRSIRQKNPDVEGESIESSQQIDDVEAVREETMELTAIHNVHDYDSISKDTVEGEPIDLTEYESKPYVPNSVSRSTGKSSDYSVERSNDKSDLSKSENKTNSSQPMEITDIFHADPQNPMSLHSDNNINNDGNEMELTQIQTNFDRDNHHIDESPSEKHAFSSNKRRKLDTVSDYAASVTTPVKEAKDTSGEDNDGDLEMMEKMSPITFSDVDNKIGTRSNDVFTIEPGTEDTGMQTATDDEEDGENVDDNGNKIVEKTRLPEIDKEGQSGIALPTQDYTLREFINEVGVGFLDTKLIDDLDKKVNFPLNSFNFVENQRIDNVFSAFYIDIPILEVEAFRCKELWRSINESKDKFKDFEAQIDKSHPPLLLQEYFSSDEKMKQLMRDQLQLVKGYSKLEAAMEWYEWRKKQLNGLELILAENLNTLKREYEKLNEEVEKVNSIRGKIRKLNEAIKEEIRSLKNLPSDSYKPTLMNRIKIEAFKQELMEHSISLSSSNDFTQEMRSLKLAIAKKSNDILTLRSEVASIDKKIEKRKLFTRFDLPKLRDTLKILESLTGVRFLKFSKATLSIAFLQLDDLRVDINLANFKNNPLSSMKVMNDSNNDDMSYHLFTMLLKNVEAEHQDSMLSNLFFAMKKWRPLLKYIKLLKLLFPVKITQTEEEEALLQFKDYDRRNKTAFFYVISLVSFAQGVFSENGQIPMKVHISTQQDYSPSREVLSDRITHKISGVLPSFTKSRIHLEFT
Turning to B2, the binding entry in experiment [1] is “binds”.
